# Some entries share one result that the patent states for a list of compounds.
# Tests used:
# Eimeria tenella = experiment: Protozoan (sporozoite) direct killing ability, Eimeria tenella; assay type: cell-based; conditions: tested 1 to 500 ppm; listed as xanthone
# Protocol: (§1) In the present example, protozoan (sporozoite) direct killing ability evaluation was conducted against 3 representative Eimeria kinds known to be infected in most farms (E. tenella, E. acervulina, E. maxima).
# (§2) A certain amount of oocysts of each protozoan was put in a tube containing glass beads and pulverized, and then to remove the crushed oocyst cell wall and other debris, internal sporocysts were purified using the percoll density gradient, and washed with PBS solution. […]
# (§3) After reacting the mangosteen pericarp extract, epicatechin, alpha-mangostin, xanthone and anticoccidial agents, salinomycin and diclazuril (hereinafter, material) with 3 kinds of Eimeria protozoa at various concentrations of 1 to 500 ppm, respectively, only alive protozoa (sporozoites) were counted through microscopic observation. Then, the death rate (%) of the protozoa when each material was treated compared to the PBS-treated negative control group was calculated and shown in Table 8 to Table 10 and Table 12, respectively, and the minimum concentration which directly killed the protozoa by 100% was shown in Table 11 below.
# Eimeria maxima = experiment: Protozoan (sporozoite) direct killing ability, Eimeria maxima; assay type: cell-based; conditions: tested 1 to 500 ppm; listed as xanthone
# Protocol: as §1, §2, §3
structure (smiles),measurement,setting,value
"O=c1c2ccccc2oc2ccccc12 [Xanthone, xanthone]","Minimum concentration for killing 100% protozoa (ppm), Eimeria tenella",Eimeria tenella,> 500 ppm
same,"Minimum concentration for killing 100% protozoa (ppm), Eimeria maxima",Eimeria maxima,> 500 ppm
